The test concerns the target T1, recombinant human GPC2 protein tagged with PE (human) (UniProt Q8N158).
T1 sequence (PE (phycoerythrin) tag, looked up): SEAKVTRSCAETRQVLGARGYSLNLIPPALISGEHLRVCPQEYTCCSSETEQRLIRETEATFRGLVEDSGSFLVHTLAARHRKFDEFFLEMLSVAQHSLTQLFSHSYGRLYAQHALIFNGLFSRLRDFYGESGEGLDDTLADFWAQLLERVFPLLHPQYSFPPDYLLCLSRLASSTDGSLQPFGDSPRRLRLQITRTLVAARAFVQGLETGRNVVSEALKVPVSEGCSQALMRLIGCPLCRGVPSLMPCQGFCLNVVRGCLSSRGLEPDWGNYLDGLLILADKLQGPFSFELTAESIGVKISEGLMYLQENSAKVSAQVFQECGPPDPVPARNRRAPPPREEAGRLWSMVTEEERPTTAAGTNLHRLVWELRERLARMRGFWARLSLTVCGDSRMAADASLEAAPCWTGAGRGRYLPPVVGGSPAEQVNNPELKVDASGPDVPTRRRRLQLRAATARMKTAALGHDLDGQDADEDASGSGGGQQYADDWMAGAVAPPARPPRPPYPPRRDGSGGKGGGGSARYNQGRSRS
Nature of the test: flow cytometry of transduced human primary T cells (day 14) stained with PE-tagged rhGPC2. On the technique in general: A flow cytometer gives signals particle by particle.

Results on one molecule are retold here after patent US20250032543A1 (CHILDREN S HOSPITAL OF PHILADELPHIA, published 2025).

No constants are given. Whether binding was seen depends on the method and setting. Some entries that bind do so weakly or less than the wild type. Sequences can lack the tags named with a protein.

B1: GPC2-targeting chimeric antigen receptor (D3 scFv, CD28 hinge/transmembrane/co-stimulatory domains, CD3 zeta) on human primary T cells (protein)
chain: PDIQMTQSPSTLSAFVGDRVTITCRASQSISSWLAWYQQKPGKAPKLLIYAASTLQSGVPSRFSGSGSGTEFTLTISSLQPEDFATYYCQQLNSYPITFGQGTRLEIKRGGGGSGGGGSGGGGSEVQLVETGGGVVKPGGSLRLSCAASGFTFSDYYMSWIRQAPGKGLEWVSYISSSGSTIYYADSVKGRFTISRDNSKNTLYLQMNSLRAEDTAVYYCARESGYDYVFDYWGQGTLVAVSSIEVMYPPPYLDNEKSNGTIIHVKGKHLCPSPLFPGPSKPFWVLVVVGGVLACYSLLVTVAFIIFWVRSKRSRLLHSDYMNMTPRRPGPTRKHYQPYAPPRDFAAYRVKFSRSADAPAYKQGQNQLYNELNLGRREEYDVLDKRRGRDPEMGGKPRRKNPQEGLYNELQKDKMAEAYSEIGMKGERRRGKGHDGLYQGLSTATKDTYDALHMQALPPR
In the case of B1, the binding entry is given as “binds”.
